Weaker means in comparison with the reference protein, sequence or condition of that experiment. Protein sequences can lack the tags named with them. For part of these data: The exact form of at least one protein or probe is not confirmed.
What was measured:
[1] = molecular target: T1, StbA1-75 (Escherichia coli plasmid R388) (UniProt Q6I6C4); experiment: EMSA; conditions: no discrete stable complex at 0.5-4 uM, slow complex at 8 uM; residues 1-75
T1 sequence (looked up): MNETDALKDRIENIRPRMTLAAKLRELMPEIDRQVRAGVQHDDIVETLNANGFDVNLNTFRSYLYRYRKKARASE

[2] = molecular target: T2, StbA (Escherichia coli plasmid R388) (UniProt Q6I6C4); experiment: EMSA
T2 sequence (looked up, limits assumed): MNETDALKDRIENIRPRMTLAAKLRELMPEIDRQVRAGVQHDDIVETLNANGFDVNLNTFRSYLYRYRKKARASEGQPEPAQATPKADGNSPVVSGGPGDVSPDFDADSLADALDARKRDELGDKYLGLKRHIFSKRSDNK

CCGTTCTAGCTCATTCTGTTCTTGCTTGCTGCATCATCATAGTTGCAACCCAATGCCGATCTAGCTCATTACTGTTCTAT (double strand) [stb1]
binding result [1]: binds more weakly | binding result ([2]; smear, specific but unstable): binds more weakly

CTTGCTTGCTGCATCATTTCCCTCTTGCAAGCCCGGTTTCCGTCCGTTTTAGCTCATTTTCTGCATCATCCCAATGCCGA (double strand) [stb2' (stb2b)]
binding result ([2]; smear as with stb1): binds more weakly

Source: doi:10.1101/2022.04.29.490116
